PubChem BioAssay AID652259 – Drosophila RNAi Screening Center – 2013
In all, the deposit lists about 22,000 reagents; shown is a random part of those that have a named target and a result. In the full data, 233 (1.1%) were called active. 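Light values are raw, unnormalised plate reads; the ratio scores behind the reporter calls were not deposited.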 Unmarked entries are inactive. A plus sign joins genes that one reagent is predicted to hit. Not given: the amount of reagent, the time to read-out, the dose of the treatment.

- Test: 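Genome-wide hunt for genes that control Wingless pathway activity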 (primary screen)
- Cell system: Drosophila clone 8 imaginal disc epithelial cells
- Reagents: long dsRNA against Drosophila genes
- Conditions: pathway stimulated by co-transfected Wingless expression plasmid
- Measured: 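Firefly luciferase from a tcf-site Wingless reporter, measured alongside co-transfected Renilla luciferase that tracks transfection; pathway stimulated by a Wingless plasmid; the firefly-to-Renilla ratio is not deposited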
- Scale: firefly reporter light: higher = more Wg reporter light, before normalisation; Renilla control light: higher = more transfected or surviving cells
- Call rule: 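a knock-down is a candidate when at least two out of four statistical tests show it departing from its plate mean; one test alone signals a weak candidate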
- Meaning of the calls: active = candidate regulator (raises or lowers reporter); inactive = not a candidate

| gene | DRSC id | reporter change call, replicate 1 | firefly reporter light, replicate 1 | firefly reporter light, replicate 2 | Renilla control light, replicate 1 | Renilla control light, replicate 2 |
| --- | --- | --- | --- | --- | --- | --- |
| CG2070 | DRSC06814 | – | 2265 | 6973 | 746 | 2252 |
| Pdxk (Pyridoxal kinase) | DRSC10419 | – | 5817 | – | 2676 | – |
| RSG7 (Regulator of G-protein signaling 7) | DRSC20274 | – | 25840 | – | 11280 | – |
| RSG7 (Regulator of G-protein signaling 7) | DRSC22852 | – | 5.13e5 | 5.47e5 | 2.01e5 | 2.20e5 |
| bark (bark beetle) | DRSC00635 | – | 3216 | 6501 | 938 | 2933 |
| CG31091 | DRSC15933 | – | 11572 | – | 12322 | – |
| TwdlT (TweedleT) | DRSC16677 | – | 8837 | – | 3184 | – |
| TwdlT (TweedleT) | DRSC21540 | – | 3.95e5 | 4.00e5 | 2.24e5 | 1.94e5 |
| Lrrk (Leucine-rich repeat kinase) | DRSC15816 | – | 20267 | – | 6448 | – |
| Lrrk (Leucine-rich repeat kinase) | DRSC21971 | – | 8.02e5 | 8.23e5 | 4.73e5 | 4.60e5 |
| CG14419 | DRSC17916 | – | 28355 | – | 18307 | – |
| rictor (rapamycin-insensitive companion of Tor) | DRSC20071 | – | 18288 | – | 8699 | – |
| tyn (trynity) | DRSC20652 | – | 15515 | – | 11128 | – |
| CG31097 | DRSC14666 | – | 21532 | – | 15133 | – |
| osa | DRSC17022 | Wg reporter activity raised (active) | 10848 | 18806 | 1412 | 1776 |
| CG11151 | DRSC19387 | – | 24241 | – | 16384 | – |
| MESR3 (Misexpression suppressor of ras 3) | DRSC02463 | – | 1913 | 4440 | 357 | 2486 |
| CG33514 | DRSC08471 | – | 3418 | 9696 | 1993 | 3802 |
| CG33514 | DRSC08472 | – | 1472 | 6759 | 1209 | 3560 |
| CG33514 | DRSC21670 | – | 7.33e5 | 7.43e5 | 4.58e5 | 3.31e5 |
| CG17687 | DRSC10279 | – | 5255 | – | 2209 | – |
| Klp31E (Kinesin-like protein at 31E) | DRSC03354 | – | 20077 | – | 1283 | – |
| Gycalpha99B (Guanylyl cyclase alpha-subunit at 99B) | DRSC16690 | – | 2779 | 5160 | 1169 | 1858 |
| CG31077 | DRSC13805 | – | 4518 | – | 2020 | – |
| CG31633 | DRSC02275 | – | 2501 | 4689 | 1232 | 2476 |
| BomT2 (Bomanin Tailed 2) | DRSC06631 | – | 7636 | – | 3555 | – |
| CG11109 | DRSC11633 | – | 8208 | – | 3093 | – |
| mahe (maheshvara) | DRSC17755 | – | 3748 | 10052 | 971 | 2096 |
| CG32642 | DRSC18959 | – | 3661 | – | 791 | – |
| Tbc1d15-17 (TBC1 domain family member 15/17) | DRSC00313 | – | 9047 | – | 3600 | – |
| CG33453 | DRSC05782 | – | 13133 | – | 10708 | – |
| Rcd5 (Reduction in Cnn dots 5) | DRSC08180 | – | 5274 | – | 1121 | – |
| GstE12 (Glutathione S transferase E12) | DRSC04047 | – | 2676 | 4493 | 616 | 1585 |
| CG33099 | DRSC15774 | – | 3491 | 3526 | 1634 | 1204 |
| Dcr-1 (Dicer-1) | DRSC15646 | – | 4219 | 7734 | 1809 | 2432 |
| Nna1 (Nna1 carboxypeptidase) | DRSC18993 | – | 4452 | – | 698 | – |
| Nna1 (Nna1 carboxypeptidase) | DRSC19404 | – | 3602 | 6557 | 1041 | 2401 |
| Psn (Presenilin) | DRSC11743 | – | 11813 | – | 4644 | – |
| Nplp2 (Neuropeptide-like precursor 2) | DRSC09824 | – | 8249 | – | 2832 | – |
| CG34056 | DRSC08374 | – | 3994 | – | 2378 | – |
| CG13248 | DRSC11696 | – | 13734 | – | 5576 | – |
| Snap24 (Synaptosomal-associated protein 24kDa) | DRSC16864 | – | 13846 | – | 3940 | – |
| SPE (Spatzle-Processing Enzyme) | DRSC15135 | – | 1989 | 7680 | 1256 | 2187 |
| CG13101 | DRSC02201 | – | 13785 | – | 4152 | – |
| Cwc25 | DRSC00545 | – | 2412 | 8551 | 809 | 2604 |
| O-fut1 (O-fucosyltransferase 1) | DRSC06138 | – | 17318 | – | 5212 | – |
| CG7011 + Prp31 | DRSC10760 | – | 8564 | – | 3539 | – |
| CG4282 | DRSC06865 | – | 11099 | – | 4164 | – |
| CG30324 | DRSC22655 | – | 6.77e5 | 6.17e5 | 2.31e5 | 80426 |
| CG13442 | DRSC06402 | – | 5024 | – | 2249 | – |
| CG14441 | DRSC17934 | – | 22224 | – | 5158 | – |
| soti (scotti) | DRSC16432 | – | 7163 | – | 2995 | – |
| Ibf2 (Insulator binding factor 2) | DRSC16551 | – | 18864 | – | 4564 | – |
| inaF-B | DRSC18903 | – | 2247 | – | 855 | – |
| CG7655 | DRSC16275 | – | 2928 | 9383 | 1368 | 2290 |
| pnr (pannier) | DRSC17027 | – | 3524 | 9031 | 1008 | 3392 |
| CG1750 | DRSC15240 | – | 2218 | 7769 | 970 | 1952 |
| CG17996 + Tsen2 | DRSC02650 | – | 2227 | 3634 | 1126 | 2300 |
| ND-B14.5B (NADH dehydrogenase (ubiquinone) B14.5 B subunit) | DRSC00346 | – | 2600 | 8755 | 840 | 3281 |
| CG34283 | DRSC13313 | – | 2941 | – | 353 | – |
| CG13894 | DRSC08364 | Wg reporter activity raised (active) | 8475 | – | 1106 | – |
| CG14132 | DRSC10136 | – | 6003 | – | 2717 | – |
| Apc (APC-like) | DRSC14114 | – | 7830 | – | 3399 | – |
| aPKC (atypical protein kinase C) | DRSC05515 | – | 14397 | – | 11985 | – |
| aPKC (atypical protein kinase C) | DRSC07639 | – | 5383 | – | 2301 | – |
| Vha68-2 (Vacuolar H[+] ATPase 68 kDa subunit 2) | DRSC02721 | – | 4425 | 14328 | 1435 | 4540 |
| VhaAC39-2 (Vacuolar H[+] ATPase AC39 subunit 2) | DRSC15609 | – | 16587 | – | 17394 | – |
| tHMG2 (testis-enriched HMG-box-containing protein 2) | DRSC16182 | – | 37712 | – | 8420 | – |
| CG7080 | DRSC16193 | – | 1858 | 3776 | 694 | 1200 |
| vir (virilizer) | DRSC04377 | – | 2563 | 5178 | 608 | 1804 |
| CG8840 | DRSC00713 | – | 2668 | 5810 | 884 | 3133 |
| CG14752 | DRSC06488 | – | 3062 | 10736 | 1053 | 3504 |
| Ir7g (Ionotropic receptor 7g) | DRSC18008 | – | 17552 | – | 7709 | – |

In a second layout: 9 of the entries above
Nplp2 (Neuropeptide-like precursor 2) [DRSC09824]
- firefly reporter light, replicate 1: 8249
- Renilla control light, replicate 1: 2832

CG34056 [DRSC08374]
- firefly reporter light, replicate 1: 3994
- Renilla control light, replicate 1: 2378

CG13248 [DRSC11696]
- firefly reporter light, replicate 1: 13734
- Renilla control light, replicate 1: 5576

Snap24 (Synaptosomal-associated protein 24kDa) [DRSC16864]
- firefly reporter light, replicate 1: 13846
- Renilla control light, replicate 1: 3940

SPE (Spatzle-Processing Enzyme) [DRSC15135]
- firefly reporter light, replicate 1: 1989
- firefly reporter light, replicate 2: 7680
- Renilla control light, replicate 1: 1256
- Renilla control light, replicate 2: 2187

CG13101 [DRSC02201]
- firefly reporter light, replicate 1: 13785
- Renilla control light, replicate 1: 4152

Cwc25 [DRSC00545]
- firefly reporter light, replicate 1: 2412
- firefly reporter light, replicate 2: 8551
- Renilla control light, replicate 1: 809
- Renilla control light, replicate 2: 2604

O-fut1 (O-fucosyltransferase 1) [DRSC06138]
- firefly reporter light, replicate 1: 17318
- Renilla control light, replicate 1: 5212

CG7011 + Prp31 [DRSC10760]
- firefly reporter light, replicate 1: 8564
- Renilla control light, replicate 1: 3539
